Several values for one entry are separate records, joined by “and”; a condition that tells them apart may be missing. Equal entries are not always repeated. Structures can show the parent of a compound that is named as a salt. The list shows a part of the results. Repeats in this data set agree poorly, so a single value says little.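 HEK293T cells were given each compound shortly before transfection with a reporter in which red mCherry is followed by the SARS-CoV-2 frameshift element and then GFP in the −1 frame, so GFP appears only after frameshifting.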

The test system of test [1] is SARS-CoV-2 -1 PRF reporter mCherry-FSE-GFP(-1). Description: mCherry (red) intensity as percent of control; higher = higher upstream reporter expression. As to conditions: 10 µM; 24 h; HEK293T.
The test system is the same in test [2]. Briefly: percent effect, decrease of GFP/mCherry ratio (-1 PRF reporter) relative to controls; higher = stronger frameshift inhibition. As to conditions: 10 µM; 24 h; HEK293T.

As for `Cc1cccc(Nc2ccncc2S(=O)(=O)NC(=O)NC(C)C)c1` [Torasemide], in test [1], the mCherry was found to be 84.5%. For the same molecule, the percent effect in test [2] was -0.234%.
In the same order, the values of `Cn1cc(C(=O)[C@@H]2CCc3[nH]cnc3C2)c2ccccc21` [ramosetron] are 103% and -2.66%.
For `C#C[C@]1(O)CC[C@H]2[C@@H]3CCc4cc(OC)ccc4[C@H]3CC[C@@]21C` [mestranol], in that order: 102% and -11.4%.
For the molecule `CCN(CC)CCN1C(=O)c2c(c3c4cccc(Cl)c4n([C@@H]4O[C@H](CO)[C@@H](OC)[C@H](O)[C@H]4O)c3c3[nH]c4c(Cl)cccc4c23)C1=O` [becatecarin], the mCherry in test [1] is 14%. For the same molecule, the percent effect in test [2] was -19.8%.
For `COc1ccc(/C=C/C(=O)Nc2ccccc2C(=O)O)cc1OC`, in that order: 107% and -0.424%.
In the same order, the values of `CCCC(CCC)C(=O)O[C@H]1C[C@H]2CC[C@@H](C1)[N+]2(C)C` [octatropine methylbromide] are 92.8% and -1.65%.
In the same order, the values of `CCCN(CC)C(CC)C(=O)Nc1c(C)cccc1C` (stereo not given) [etidocaine] are 73.2% and -4%.
As for `COc1nc(N)nc2c1ncn2[C@@H]1O[C@H](CO)[C@@H](O)[C@@H]1O`, in test [1], the mCherry is 79.6%. In test [2], the percent effect is -2.1%.
In the same order, the values of `Cc1nnc(SCC2=C(C(=O)O)N3C(=O)[C@@H](NC(=O)Cn4cnnn4)[C@H]3SC2)s1` are 114% and -14.6%.
In the same order, the values of `O=C(CCCc1ccccc1)OCC(COC(=O)CCCc1ccccc1)OC(=O)CCCc1ccccc1` [glycerol phenylbutyrate] are 83.1% and 2.31%.
In the same order, the values of `O=C(O)Cc1cscc1Nc1c(Cl)cccc1Cl` [eltenac] are 86% and -2.67%.
`CC1=C(C/C=C(\C)CCC[C@H](C)CCC[C@H](C)CCCC(C)C)C(=O)c2ccccc2C1=O` [Mephyton]: the mCherry in test [1] was found to be 100%. Further, in test [2], the percent effect is -2.7%.
`CC(C)C[C@H](NC(=O)[C@@H](COC(C)(C)C)NC(=O)[C@H](Cc1ccc(O)cc1)NC(=O)[C@H](CO)NC(=O)[C@H](Cc1c[nH]c2ccccc12)NC(=O)[C@H](Cc1cnc[nH]1)NC(=O)[C@@H]1CCC(=O)N1)C(=O)N[C@@H](CCCNC(=N)N)C(=O)N1CCC[C@H]1C(=O)NNC(N)=O` [Goserelin]: in test [1], the mCherry is 78.6% and 91.7%. Also, the percent effect in test [2] was -2.34% and -0.186%.
`CCC/C=C\C=C/C(=O)N[C@@H](CC(N)=O)C(=O)NC(CC(N)=O)C(=O)N[C@@H](C(=O)N[C@H](CCCN)C(=O)N[C@@H](C(=O)N[C@@H](C(=O)N[C@@H](C(=O)N[C@H](C(=O)N[C@@H](Cc1ccccc1)C(=O)N[C@H](CCCN)C(=O)NC(C(=O)N[C@H](C(=O)NC(C(=O)NCC(=O)N[C@@H](CC(C)C)C(=O)N[C@H](C)C(=O)NC(C(=O)O)C1CCC(O)C(Cl)C1)C1CCC(O)CC1)[C@H](C)O)C1CCC(O)CC1)[C@H](C)O)C1CCC(O)CC1)C1CCC(O)CC1)[C@H](C)O)C1CCC(O)CC1` (stereo not given in full): in test [1], the mCherry was 95.6%. Moreover, the percent effect in test [2] is -3.27%.
For `COc1cc2c(cc1OC)-c1c/c(=N\c3c(C)cc(C)cc3C)n(C)c(=O)n1CC2` [trequinsin], in that order: 72.2% and -4.22%.
Molecule `O=C(NCC(O)CO)c1c(I)c(C(=O)NCC(O)CO)c(I)c(N(CCO)C(=O)CO)c1I` (stereo not given) [ioversol] showed a mCherry in test [1] of 121%. The percent effect in test [2] was found to be 1.99%.
For `CC(C)NCC(O)COc1cccc2[nH]c3ccccc3c12` (stereo not given) [carazolol], in that order: 95.6% and 4.47%.
For `Cc1cc2nc3c(=O)[nH]c(=O)nc-3n(C[C@H](O)[C@H](O)[C@H](O)CO)c2cc1C` [riboflavin], in that order: 73.4% and -40%.
`C#C[C@]1(O)CC[C@H]2[C@@H]3CCC4=CC(=O)CC[C@@H]4[C@H]3C(=C)C[C@@]21CC` [etonogestrel] registered a mCherry in test [1] of 111%. The percent effect in test [2] is -2.37%.
In the same order, the values of `CCNC(=O)N1CCN(CCCC(c2ccc(F)cc2)c2ccc(F)cc2)CC1` [amperozide] are 88.2% and -2.92%.
For `COc1cc2cc(c1Cl)N(C)C(=O)C[C@H](OC(=O)[C@H](C)N(C)C(C)=O)[C@]1(C)O[C@H]1[C@H](C)[C@@H]1C[C@@](O)(NC(=O)O1)[C@H](OC)/C=C/C=C(\C)C2` [maitansine], in that order: 109% and -0.162%.
In the same order, the values of `CC(C[N+](C)(C)C)OC(N)=O` (stereo not drawn) [Carbamyl-beta-methylcholine] are 85.9% and 1.22%.
Turning to `O=C(O)COc1ccccc1/C=N/NC(=O)c1ccncc1` [aconiazide], in test [1], the mCherry amounted to 147%. For the same molecule, the percent effect in test [2] was -9.61%.
`CCNCc1c(CSC)cnc(C)c1O` [tamitinol]: the mCherry in test [1] was 129%. The percent effect in test [2] is 3.9%.
For `CC1CCN(C(=O)[C@@H](CCn2cccc2C#N)NS(=O)(=O)c2cccc3[nH]ccc23)CC1`, in that order: 79.6% and -0.107%.
In the same order, the values of `CC(=O)N(CC(O)CO)c1c(I)c(C(=O)NCCO)c(I)c(C(=O)NCC(O)CO)c1I` (stereo not given) [ioxilan] are 127% and -1.33%.
Consider `CCCCOc1cc(C(=O)OCCN(CC)CC)ccc1N`, for which the mCherry in test [1] turned out to be 98.4%. Also, in test [2], the percent effect is -4.42%.
For `C1=CN2CC(c3cccs3)N=C2S1` (stereo not given) [antienite], in that order: 95.5% and -1.66%.
For the molecule `CC[C@H](C)C(=O)O[C@H]1CCC=C2C=C[C@H](C)[C@H](CC[C@@H]3C[C@@H](O)CC(=O)O3)[C@H]21` [mevastatin], the mCherry in test [1] is 83.7% and 68.2%. The percent effect in test [2] was -3.41% and -8.72%.
In turn, `C[C@@H](O[C@H]1OCCN(Cc2nn(P(=O)(O)O)c(=O)[nH]2)[C@H]1c1ccc(F)cc1)c1cc(C(F)(F)F)cc(C(F)(F)F)c1` [Fosaprepitant] yielded a mCherry in test [1] of 98.1%. Besides, the percent effect in test [2] was -1.98%.
In the same order, the values of `CC1(c2ccccc2)OC(C(=O)O)=CC1=O` (stereo not given) [acifran] are 87.6% and -11.9%.
In the same order, the values of `Cc1cc(=O)n(-c2ccccc2)n1C` are 70.8% and -5.35%.
As to `O=C1CN(/N=C/c2ccc(-c3ccc(Cl)c(Cl)c3)o2)C(=O)N1` [clodanolene], the mCherry in test [1] is 104%. For the same molecule, in test [2], the percent effect is -8.99%.
For `C[C@H](CCC(=O)O)[C@H]1CC[C@H]2[C@@H]3CC[C@@H]4C[C@H](O)CC[C@]4(C)[C@H]3C[C@H](O)[C@]12C` [Deoxycholic Acid], in that order: 77.1% and -3.49%.
The molecule `CN(C)S(=O)(=O)c1ccc2c(c1)N(CCCN1CCC(CCO)CC1)c1ccccc1S2` [pipotiazine] showed a mCherry in test [1] of 84.9%. Further, the percent effect in test [2] was -0.694%.
For `C=CC(N)CCC(=O)O` (stereo not given) [vigabatrin], in that order: 96.2% and -4.63%.
In the same order, the values of `Cc1cnc(NC(=O)C2=C(O)c3ccccc3S(=O)(=O)N2C)s1` are 96.3% and -0.0806%.
Turning to `Cc1cccc(N2CC(CO)OC2=O)c1` (stereo not given) [Toloxatone], the mCherry in test [1] amounted to 112%. The percent effect in test [2] is -0.752%.
In the same order, the values of `NC(Cc1ccc(Cl)cc1)C(=O)O` (stereo not given) [fenclonine] are 118% and 0.466%.
In the case of `NC(=O)N/N=C/c1ccc([N+](=O)[O-])o1` [Nitrofural], in test [1], the mCherry amounted to 91.1%. Moreover, the percent effect in test [2] is -0.37%.
In the same order, the values of `CN1CCN(C2=Nc3cc(Cl)ccc3Nc3ccccc32)CC1` [Clozapine] are 70.9% and -2.21%.
As to `CN(C(=O)CO/N=C(\c1ccccc1)c1ccc2c(c1)CN1CC(=O)NC1=N2)C1CCCCC1` [revizinone], the mCherry in test [1] was 104%. For the same molecule, the percent effect in test [2] amounted to 2.04%.
In the same order, the values of `CC(C)NCC(O)c1ccc(NS(C)(=O)=O)cc1` (stereo not given) [Sotalol·HCl] are 99.3% and -1.23%.
For `CCCC(CCC)C(=O)O` [valproate semisodium], in that order: 103% and -4.52%.
For `COc1ccc([C@]2(C#N)CC[C@@H](C(=O)O)CC2)cc1OC1CCCC1` [cilomilast], in that order: 70.7% and -6.83%.
Regarding `Nc1nc2ccc(OC(F)(F)F)cc2s1` [Riluzole·HCl], in test [1], the mCherry turned out to be 92.1%. Moreover, in test [2], the percent effect was found to be 11.7%.
`CC(CN(C)C)CN1c2ccccc2CCc2ccccc21` (stereo not given): the mCherry in test [1] came to 106%. The percent effect in test [2] is -3.09%.
In the same order, the values of `COc1cc2c(cc1OC)C(=O)C(CC1CCN(Cc3ccccc3)CC1)C2` (stereo not given) [donepezil] are 97.7% and -3.74%.
In the same order, the values of `CC(CCc1ccc(O)cc1)NCC(O)c1ccc(O)cc1` (stereo not given) are 112% and 2.18%.
For `O=C(O)CCC/C=C\C[C@@H]1[C@@H](/C=C/[C@@H](O)COc2cccc(C(F)(F)F)c2)[C@H](O)C[C@@H]1O` (racemic) [fluprostenol], in that order: 91.4% and -3.37%.
`CC[C@H](C)[C@@H]([C@@H](CC(=O)N1CCC[C@H]1[C@H](OC)[C@@H](C)C(=O)NCCc1ccccc1)OC)N(C)C(=O)[C@@H](NC(=O)[C@H](C(C)C)N(C)C)C(C)C` [soblidotin] registered a mCherry in test [1] of 83.7%. Besides, the percent effect in test [2] is -3.19%.
In the same order, the values of `CS(=O)(=O)c1ccc([C@@H](O)[C@@H](CO)NC(=O)C(Cl)Cl)cc1` [thiamphenicol] are 117% and 2.8%.
For `CCC(C)CCCCC(=O)NCC[C@@H]1NC(=O)[C@H](CC(C)C)NC(=O)[C@H](CCN)NC(=O)[C@H](CC(C)C)NC(=O)[C@H](CCN)NC(=O)[C@H](CCN)NC(=O)[C@H](CCN)NC(=O)[C@H]([C@@H](C)O)NC1=O` (stereo not given in full) [colistimethate sodium], in that order: 113% and -8.53%.
In the same order, the values of `CCOc1ccc(NC(=O)CC(C)O)cc1` (stereo not given) [bucetin] are 103% and -0.514%.
As to `CCCn1c(=O)c2nc(C34CC5CC(CC3C5)C4)[nH]c2n(CCC)c1=O` [rolofylline], in test [1], the mCherry was found to be 83%. Also, in test [2], the percent effect is -16.5%.
In turn, `COC(=O)[C@@H]1CC2=CC(=O)CC[C@]2(C)[C@@]23O[C@@H]2C[C@@]2(C)[C@@H](CC[C@@]24CCC(=O)O4)[C@H]13` [eplerenone] gave a mCherry in test [1] of 76.3%. Also, the percent effect in test [2] is -5.28%.
For `C[C@@H]1O[C@@H](OC[C@H]2O[C@@H](Oc3c(-c4ccc(O)c(O)c4)oc4cc(O)cc(O)c4c3=O)[C@H](O)[C@@H](O)[C@@H]2O)[C@H](O)[C@H](O)[C@H]1O` [rutoside], in that order: 118% and -3.86%.
In the same order, the values of `Cc1cccc(C)c1NC(=O)c1ccccc1C(=O)O` [ftaxilide] are 65.2% and -1.93%.
For `NC(=O)c1ccc([N+](=O)[O-])cc1Cl` [aklomide], in that order: 121% and 0.458%.
In test [1], `CC(=O)OCC1=C(C(=O)O)N2C(=O)[C@@H](NC(=O)CSc3ccncc3)[C@H]2SC1` [cefapirin] yielded a mCherry of 63.2%. In addition, the percent effect in test [2] was -4.71%.
In the same order, the values of `CC(C)[C@H](N)C(=O)O` [valine] are 86.1% and -0.513%.
Regarding `CCOc1ccccc1OCC(O)CO` (stereo not given) [guaietolin], the mCherry in test [1] was 93.3%. In addition, in test [2], the percent effect is -0.617%.
For `CN(C)C(=N)NC(=N)N` [metformin], in that order: 98.4% and 1.62%.
For `CC(C)NCC(O)COc1ccc(COCCOC(C)C)cc1` (stereo not given), in that order: 114% and 0.466%.
For `CNS(=O)(=O)Cc1ccc2[nH]cc(CCCN3CCN(c4ncncc4OC)CC3)c2c1` [avitriptan], in that order: 66.9% and -11%.

Source of the values: the supplement of paper PMC8256030.
